In paper PMC7862700:
The list shows a part of the results, in another mix than the full data. At the low end of the ranking the order means little.

Chains of the proteins cited; added tags and fusions are not shown. Lines headed by an entry give the natural chain unless they say otherwise; changes in a name come on top.
UniProt Q9Y603: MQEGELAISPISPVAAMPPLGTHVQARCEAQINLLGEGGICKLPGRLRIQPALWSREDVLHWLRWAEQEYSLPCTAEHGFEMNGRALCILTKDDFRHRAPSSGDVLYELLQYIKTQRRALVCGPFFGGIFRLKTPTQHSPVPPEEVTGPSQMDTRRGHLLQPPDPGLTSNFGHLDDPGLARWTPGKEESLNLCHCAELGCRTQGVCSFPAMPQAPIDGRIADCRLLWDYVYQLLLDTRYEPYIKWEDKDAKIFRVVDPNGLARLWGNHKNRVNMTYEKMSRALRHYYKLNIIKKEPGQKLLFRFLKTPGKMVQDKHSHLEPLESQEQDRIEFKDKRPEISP
UniProt P41212: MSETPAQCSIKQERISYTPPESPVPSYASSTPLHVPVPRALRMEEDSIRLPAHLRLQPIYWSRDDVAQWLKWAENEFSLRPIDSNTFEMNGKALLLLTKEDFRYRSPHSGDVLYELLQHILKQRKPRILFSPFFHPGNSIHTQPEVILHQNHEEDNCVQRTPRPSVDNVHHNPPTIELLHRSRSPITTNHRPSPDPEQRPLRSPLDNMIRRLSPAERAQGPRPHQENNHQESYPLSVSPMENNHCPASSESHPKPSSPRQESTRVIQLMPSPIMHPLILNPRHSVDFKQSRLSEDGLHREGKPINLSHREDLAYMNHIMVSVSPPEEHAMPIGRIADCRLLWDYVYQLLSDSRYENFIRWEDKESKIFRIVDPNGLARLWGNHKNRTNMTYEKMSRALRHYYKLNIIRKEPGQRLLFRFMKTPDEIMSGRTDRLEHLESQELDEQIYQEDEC

How the values were obtained:
Experiment in all cases: DAPPL (digital affinity profiling via proximity ligation, sequencing)
Settings in all cases: 10 mM Tris-HCl pH 7.5, 50 mM NaCl, 1 mM DTT, 4% glycerol, room temperature, 30 min; GST-TFs on glutathione beads, 16-mer random dsDNA library, 0.1% …; high values mean tight binding; double strand, one strand shown; scale: fold enrichment (6-mer frequency, TF over GST control)
ELF3 = biological target: T1, ELF3 (UniProt P78545)
T1 sequence: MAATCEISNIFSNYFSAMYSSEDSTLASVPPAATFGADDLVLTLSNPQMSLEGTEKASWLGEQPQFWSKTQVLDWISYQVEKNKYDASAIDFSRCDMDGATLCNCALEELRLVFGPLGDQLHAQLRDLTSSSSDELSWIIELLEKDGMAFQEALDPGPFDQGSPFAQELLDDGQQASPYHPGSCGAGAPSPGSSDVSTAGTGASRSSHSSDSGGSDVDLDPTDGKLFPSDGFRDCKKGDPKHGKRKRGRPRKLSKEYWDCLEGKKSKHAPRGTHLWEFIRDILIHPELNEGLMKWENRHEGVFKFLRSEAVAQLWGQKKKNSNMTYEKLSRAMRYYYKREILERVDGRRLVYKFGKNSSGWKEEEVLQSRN

ETV7 = ETV7 (UniProt Q9Y603)
ETV6 = ETV6 (UniProt P41212)

For ACACGT, the binding signal (ELF3) was 0.778, the binding signal (ETV7) was 0.789 and the binding signal (ETV6) was 0.811.
With TAGGCG the binding signal (ELF3) was 0.541, the binding signal (ETV7) was 0.662 and the binding signal (ETV6) was 0.614.
Sequence GTGTCA has a binding signal (ELF3) of 0.869, a binding signal (ETV7) of 0.915 and a binding signal (ETV6) of 0.857.
GTTAGA was tested, and the binding signal (ELF3) was 0.756, the binding signal (ETV7) was 0.7 and the binding signal (ETV6) was 0.726.
ACAGGG showed a binding signal (ELF3) of 0.7, a binding signal (ETV7) of 0.921 and a binding signal (ETV6) of 0.855.
In the case of GGGAGA, the binding signal (ELF3) is reported as 0.295, the binding signal (ETV7) is reported as 0.355 and the binding signal (ETV6) is reported as 0.333.
Sequence GGGAAT has a binding signal (ELF3) of 0.838, a binding signal (ETV7) of 0.846 and a binding signal (ETV6) of 0.786.
Work on GTCAGG yielded a binding signal (ELF3) of 0.55, a binding signal (ETV7) of 0.54 and a binding signal (ETV6) of 0.517.
Work on CAGCCA yielded a binding signal (ELF3) of 0.874, a binding signal (ETV7) of 0.807 and a binding signal (ETV6) of 0.777.
TCAGGG showed a binding signal (ELF3) of 0.891, a binding signal (ETV7) of 0.801 and a binding signal (ETV6) of 0.751.
Work on GAGAAC yielded a binding signal (ELF3) of 0.407, a binding signal (ETV7) of 0.458 and a binding signal (ETV6) of 0.375.
In the case of CTAGTC, the binding signal (ELF3) is reported as 0.831, the binding signal (ETV7) is reported as 0.864 and the binding signal (ETV6) is reported as 0.675.
For GAGACC, the binding signal (ELF3) was 0.183, the binding signal (ETV7) was 0.198 and the binding signal (ETV6) was 0.185.
For CGTCAG, the binding signal (ELF3) was 0.894, the binding signal (ETV7) was 0.851 and the binding signal (ETV6) was 0.867.
AGGGCC was tested, and the binding signal (ELF3) was 0.805, the binding signal (ETV7) was 0.837 and the binding signal (ETV6) was 0.899.
For CCATGA, the binding signal (ELF3) was 0.877, the binding signal (ETV7) was 0.753 and the binding signal (ETV6) was 0.834.
Work on TAGAGC yielded a binding signal (ELF3) of 0.774, a binding signal (ETV7) of 0.725 and a binding signal (ETV6) of 0.754.
With ACGGGG the binding signal (ELF3) was 0.587, the binding signal (ETV7) was 0.708 and the binding signal (ETV6) was 0.659.
In the case of CAGTGT, the binding signal (ELF3) is reported as 0.749, the binding signal (ETV7) is reported as 0.781 and the binding signal (ETV6) is reported as 0.645.
GGCGAG gave a binding signal (ELF3) of 0.48, a binding signal (ETV7) of 0.593 and a binding signal (ETV6) of 0.515.
In the case of CGGGTT, the binding signal (ELF3) is reported as 0.897, the binding signal (ETV7) is reported as 0.888 and the binding signal (ETV6) is reported as 0.822.
GGCTGT gave a binding signal (ELF3) of 0.852, a binding signal (ETV7) of 0.925 and a binding signal (ETV6) of 0.757.
Sequence GGCGCT has a binding signal (ELF3) of 0.704, a binding signal (ETV7) of 0.738 and a binding signal (ETV6) of 0.736.
In the case of AGAGCA, the binding signal (ELF3) is reported as 0.785, the binding signal (ETV7) is reported as 0.732 and the binding signal (ETV6) is reported as 0.75.
GTATAG was tested, and the binding signal (ELF3) was 0.995, the binding signal (ETV7) was 0.976 and the binding signal (ETV6) was 0.922.
For CGGGGG, the binding signal (ELF3) was 0.405, the binding signal (ETV7) was 0.446 and the binding signal (ETV6) was 0.455.
For CAGGTG, the binding signal (ELF3) was 0.533, the binding signal (ETV7) was 0.598 and the binding signal (ETV6) was 0.565.
With CGTGGC the binding signal (ELF3) was 0.965, the binding signal (ETV7) was 0.971 and the binding signal (ETV6) was 0.946.
Work on GGCTGA yielded a binding signal (ELF3) of 0.79, a binding signal (ETV7) of 0.684 and a binding signal (ETV6) of 0.737.
Work on GCGCCA yielded a binding signal (ELF3) of 0.805, a binding signal (ETV7) of 0.74 and a binding signal (ETV6) of 0.845.
Sequence AGGCGT has a binding signal (ELF3) of 0.523, a binding signal (ETV7) of 0.509 and a binding signal (ETV6) of 0.475.
Sequence AACGTG has a binding signal (ELF3) of 0.345, a binding signal (ETV7) of 0.401 and a binding signal (ETV6) of 0.381.
Sequence AGTGGA has a binding signal (ELF3) of 0.827, a binding signal (ETV7) of 0.81 and a binding signal (ETV6) of 0.839.
GTGACG showed a binding signal (ELF3) of 0.66, a binding signal (ETV7) of 0.672 and a binding signal (ETV6) of 0.705.
GGACGA was tested, and the binding signal (ELF3) was 0.618, the binding signal (ETV7) was 0.627 and the binding signal (ETV6) was 0.629.
GTCGAT was tested, and the binding signal (ELF3) was 0.694, the binding signal (ETV7) was 0.723 and the binding signal (ETV6) was 0.67.
